Reference: PubChem BioAssay AID493014 (National Center for Advancing Translational Sciences (NCATS), 2011)
The list shows a part of the results. Shown are side measurements of this screen, not its main read-out; they come without a call. Most of these compounds were active or inconclusive in the main read-out, so they are no random draw. Potencies come from curve fits of mixed quality, noted in brackets.

Experiment: qHTS Assay to Find Inhibitors of Chronic Active B-Cell Receptor Signaling
Settings: ABC-DLBCL IkBa-CBG/CBR reporter, luminescence ratio (green luciferase fused to IkBa over red control in TMD8 lymphoma cells), 4 h
In short: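 Cell line TMD8 (human ABC DLBCL), stably expressing tet-inducible CBG68-IkBa fusion and CBR; IMDM/0.5% FBS; cpd up to 46 uM; dox induction, 4 h, 37C/5% CO2; dual luminescence; green/red ratio; MG132 control.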

[1] = measured here: CBR red luminescence, cell number
[2] = measured here: IkBa-CBG green luminescence

| SMILES | AC50 [1] | AC50 [2] |
| --- | --- | --- |
| COc1ccc(NC(=S)c2ccc3ccccc3n2)cc1 | 20 µM [rising, single point] | – |
| Cc1cc(/C=C\c2ccccc2)nc2ccccc12 | 0.355 µM [rising, full curve, poor fit] | – |
| Cc1ccc(-c2nn(-c3ccccc3)cc2C=O)o1 | 1.41 µM [rising, partial curve, poor fit] | – |
| Cc1cccc(NC(=O)Cc2coc3ccc4ccccc4c23)n1 | 23.1 µM [falling, partial curve, poor fit] | – |
| Cc1c(/C(O)=C2/C(=O)C(=O)N(CCN3CCOCC3)C2c2ccccn2)cnn1-c1ccccc1 (stereo unspecified) | 4.47 µM [rising, full curve] | – |
| Cc1ccc(Cl)cc1NC(=O)c1sc2nc(-c3ccccc3)cn2c1C | 0.631 µM [rising, full curve, poor fit] | – |
| OCC#CCSc1nnc(-c2cccc3ccccc23)o1 | 13 µM [rising, partial curve] | – |
| CCOC(=O)c1ccc(NC(=O)c2cn(CCC#N)nc2-c2ccc3c(c2)OCCO3)cc1 | 20.6 µM [falling, single point] | – |
| Cc1cc2c(=O)n(Cc3ccco3)c(SCC(=O)N3CCCc4ccccc43)nc2s1 | 20.6 µM [falling, single point] | 16.4 µM [rising, partial curve, poor fit] |
| Cc1ccc(NC(=O)c2cc(NC(=O)c3ccco3)ccc2N2CCCCC2)cc1 | 1.12 µM [falling, full curve] | – |
| O=C(Nc1nnc(SCc2ccccn2)s1)C1CC(=O)N(c2ccc(F)cc2)C1 (stereo unspecified) | 20 µM [falling, single point] | – |
| COc1ccc(NC(C)=O)cc1S(=O)(=O)NC(C)c1ccc(-n2ccnc2)cc1 (stereo unspecified) | 29.1 µM [rising, single point] | – |
| Cc1ccc(C(=O)Nc2ncc3c(Cl)cccc3n2)cc1 | 8.91 µM [falling, partial curve, poor fit] | – |
| O=C(NC(=S)NCc1ccccc1)c1cccs1 | 3.16 µM [rising, partial curve, poor fit] | – |
| Cc1cc(C)c(S(=O)(=O)N2CCC(C(=O)OCc3c(C)noc3C)CC2)c(C)c1 | 1.64 µM [rising, full curve, poor fit] | – |
| CC(C)CN(C(=O)c1ccc(=O)n(C)n1)c1nc2ccccc2s1 | 0.291 µM [rising, full curve, poor fit] | – |
| O=C(N/N=C/c1ccc2c(c1)OCO2)c1cc(-c2ccco2)nc2ccccc12 | 29.1 µM [rising, single point] | – |
| CCN(CC)S(=O)(=O)c1cccc(NC(=O)c2ccc(Br)cc2)c1 | 8.91 µM [falling, partial curve] | – |
| O=C(O)c1ccccc1NS(=O)(=O)c1ccc2c3c(cccc13)C(=O)N2 | 2.51 µM [falling, partial curve, poor fit] | – |
| COc1ccc2[nH]c(C)c(CCN(Cc3cccs3)C(=S)Nc3ccc(F)cc3)c2c1 | 18.4 µM [falling, single point] | – |

| SMILES | AC50 [1] | AC50 [2] |
| --- | --- | --- |
| Cc1csc(NC(=O)CSc2nc(=O)cc(N)n2-c2ccc(F)cc2)n1 | 10 µM [falling, partial curve, poor fit] | – |
| C=CCNC(=O)c1onc(CSc2ccccc2F)c1C(=O)O | 10 µM [falling, partial curve] | – |
| CCCCCCOC1(c2ccccc2)OC(=O)c2ccccc21 (stereo unspecified) | 17.8 µM [rising, single point] | – |
| COc1ccc2[nH]c3c(c2c1)CCN1C(=O)C(CC(=O)NC(C)(C)C)C[C@H](C(=O)N2CCOCC2)[C@@]31CCC1CCCC1 (stereo partly specified) | 32.6 µM [falling, single point] | – |
| Fc1ccc(NCc2nnc(SCc3nnc(-c4ccccc4)o3)n2CC2CCCO2)cc1 (stereo unspecified) | 6.51 µM [rising, single point] | – |
| CCOc1ccc(NC(=S)/C(=C(\[O-])c2ccc(C)c([N+](=O)[O-])c2)[n+]2ccccc2)cc1 | 29.1 µM [rising, single point] | – |
| Cc1cccc(-n2nnc(C(=O)N3CCc4ccccc4C3)c2N)c1 | 5.01 µM [falling, full curve, poor fit] | – |
| CCNC(=S)N(CCc1c(C)[nH]c2ccc(C)cc12)Cc1cc(OC)c(OC)c(OC)c1 | 2.06 µM [rising, partial curve, poor fit] | – |
| O=C1C(Cl)=C(NS(=O)(=O)c2ccc([N+](=O)[O-])cc2)C(=O)c2ccccc21 | 5.62 µM [falling, partial curve] | – |
| COC(=O)c1ccc(CNC(=O)COC(=O)/C=C/c2ccc(OC)c(OC)c2)cc1 | 0.164 µM [rising, partial curve, poor fit] | – |
| COc1ccc(C(=O)N/N=C/c2ccc(OC(=O)c3cccc4ccccc34)c([N+](=O)[O-])c2)cc1 | 14.6 µM [falling, partial curve] | 20.6 µM [rising, partial curve] |
| COCCn1nnnc1C(c1ccc(OC)cc1OC)N1CCN(c2ccccc2)CC1 (stereo unspecified) | 0.00461 µM [rising, full curve, poor fit] | – |
| Cc1cc(C(=O)N/N=C/c2ccc(-c3ccc(C)c(Cl)c3)o2)n[nH]1 | 5.62 µM [rising, single point] | – |
| CCc1cc2c(=O)[nH]c(-c3ccccn3)nc2s1 | 13 µM [falling, partial curve, poor fit] | 3.66 µM [falling, full curve] |
| Cc1ccc(C(=O)Nc2sc(Cc3ccc4c(c3)OCO4)c(C)c2C(N)=O)cc1 | 20.6 µM [rising, single point] | 29.1 µM [falling, single point] |
| COc1ccc(C(=O)NC2CCN(C(=O)NC3CCCCC3)CC2)cc1 | 6.31 µM [rising, single point] | – |
| COc1ccccc1NC(=O)N(Cc1ccco1)Cc1cc2cccc(C)c2[nH]c1=O | 8.2 µM [falling, partial curve, poor fit] | – |
| COc1cc(C2c3c(n[nH]c3C)C(=O)N2c2ccc(C)cc2)ccc1O (stereo unspecified) | 22.4 µM [falling, single point] | – |
| COc1ccc(/C=N/NC(=O)c2cccnc2)cc1O | 14.1 µM [falling, partial curve, poor fit] | – |
| CCOC(=O)Nc1nnc(-c2ccc(OC)cc2)s1 | 0.259 µM [rising, full curve, poor fit] | – |

Random excerpt: three entries already listed

| SMILES | AC50 [1] | AC50 [2] |
| --- | --- | --- |
| COc1ccc2[nH]c3c(c2c1)CCN1C(=O)C(CC(=O)NC(C)(C)C)C[C@H](C(=O)N2CCOCC2)[C@@]31CCC1CCCC1 (stereo partly specified) | 32.6 µM [falling, single point] | – |
| Fc1ccc(NCc2nnc(SCc3nnc(-c4ccccc4)o3)n2CC2CCCO2)cc1 (stereo unspecified) | 6.51 µM [rising, single point] | – |
| CCCCCCOC1(c2ccccc2)OC(=O)c2ccccc21 (stereo unspecified) | 17.8 µM [rising, single point] | – |

The listing continues:

| SMILES | AC50 [1] | AC50 [2] |
| --- | --- | --- |
| COc1ccc(C(=O)/C=C/c2cccc(OCc3ccccc3)c2)cc1CSCC(=O)O | 1 µM [falling, full curve] | – |
| O=[N+]([O-])c1ccccc1S(=O)(=O)N1CCN(c2ccccc2)CC1 | 14.1 µM [rising, partial curve, poor fit] | – |
| Cc1ccc(N2CC(c3nc4ccccc4[nH]3)CC2=O)c(C)c1 (stereo unspecified) | 29.1 µM [rising, single point] | – |
| O=C(O)CSc1nnc(CNc2cccc(C(F)(F)F)c2)n1Cc1ccco1 | 22.4 µM [falling, single point] | – |
| COc1ccc(/C=N/NC(=O)c2ccc(Cl)cc2)cc1Cn1cc(Cl)cn1 | 0.92 µM [falling, full curve] | – |
| Cc1c(-c2cccc(Cl)c2)nc2ccccc2c1C(=O)NC1CC1 | 35.5 µM [falling, single point] | – |
| Cc1ccc(-c2nc(CSCC(=O)NC3CCN(Cc4ccccc4)CC3)c(C)o2)cc1 | 6.31 µM [falling, partial curve, poor fit] | – |
| C=CCn1cnc2c(oc3ccccc32)c1=O | 5.62 µM [rising, single point] | – |
| Cc1cccc(C)c1OCC(=O)Nc1cccc(-c2nnc(-c3ccccc3)o2)c1 | 7.08 µM [rising, partial curve, poor fit] | – |
| COc1cc2ncnc(Nc3cccc(Cl)c3)c2cc1OC | 35.5 µM [falling, single point] | – |
| COc1ccccc1NC(=O)COC(=O)Cc1c[nH]c2ccccc12 | 5.62 µM [falling, single point] | – |
| COc1ccc(C(=O)NCc2ccc3c(c2)OCO3)cc1 | 15.8 µM [falling, partial curve] | – |
| Cc1noc(C)c1CSc1nc2[nH]ncc2c(=O)n1-c1ccccc1 | 18.4 µM [rising, partial curve] | 23.1 µM [falling, partial curve] |
| C/C(=N\NC(=O)c1ccccn1)c1ccc(Cl)cc1 | 10 µM [falling, partial curve, poor fit] | – |
| Cc1c(OCC(=O)N2CCC(C(=O)NCCCC(=O)O)CC2)ccc2c1oc(=O)c1ccccc12 | 2.51 µM [falling, partial curve, poor fit] | – |
| Cc1ccc(N/C=C2\C(=O)N(c3ccc(F)cc3F)C(c3cccnc3)S2(=O)=O)cc1 (stereo unspecified) | 3.55 µM [rising, full curve, poor fit] | – |
| CCOc1cccc(-c2nnc3n2N=C(c2cc(OC)ccc2OC)CS3)c1 | 3.66 µM [rising, full curve, poor fit] | 4.11 µM [falling, partial curve, poor fit] |
| NC(=O)CSc1nc(N)c2c3c(sc2n1)CCCCC3 | 20 µM [falling, single point] | – |
| CCc1nnc(NC(=O)CN2CCN(Cc3cccc(F)c3)CC2)s1 | 22.4 µM [falling, single point] | – |
| COc1ccc(NC(=O)N(C)C[C@H]2Oc3ccc(NS(=O)(=O)c4cccs4)cc3C(=O)N([C@@H](C)CO)C[C@@H]2C)cc1 | 16.4 µM [rising, partial curve, poor fit] | – |
